Data published in PubChem BioAssay AID493014 (National Center for Advancing Translational Sciences (NCATS), 2011).
About 170 (0.05%) of roughly 340,000 compounds were called active. This list was built around the results that the source calls inconclusive (neither active nor inactive); the mix of calls is not that of the screen. Calls come from the whole dose curve; as a rule, active = well fitted inhibition curve with a large enough effect in the signal ratio, with a control signal flat (not every such curve was filed as active); inconclusive = small, poorly fitted or top-dose-only effect, or effect the other way, or a change in a side signal; inactive = flat fitted curve, though single readings scatter; the % refers to the signal ratio. Potencies of inconclusive entries are doubtful fits and often do not repeat.

experiment: qHTS Assay to Find Inhibitors of Chronic Active B-Cell Receptor Signaling; conditions: ABC-DLBCL IkBa-CBG/CBR reporter, luminescence ratio (green luciferase fused to IkBa over red control in TMD8 lymphoma cells), 4 h; activity change, negative = inhibition: at 46.1 µM (top of the series) unless noted;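 for activity change, negative = inhibition: plate controls were basal doxycycline-induced cells for no effect and cells given 10 µM MG132 for full effect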
Outline: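 Doxycycline induced both beetle luciferases in TMD8 lymphoma cells; IKK-driven degradation limits the IkappaBalpha-fused green signal, while red luminescence normalises for cell number and nonspecific effects. Compounds tested up to 46 uM, 4 hrs.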
Potency is the fitted concentration of half-maximal effect.

| SMILES | activity change, negative = inhibition | Potency |
| --- | --- | --- |
| CCOc1ccc(Nc2ncnc3ccc([N+](=O)[O-])cc23)cc1 | inconclusive: 8.26% |  |
| Cc1oc2cc([N+](=O)[O-])c(O)c([N+](=O)[O-])c2c1C(=O)c1ccc(Cl)cc1 | inactive: 14.1% |  |
| c1ccc(-n2ncc3c(NCc4ccc5c(c4)OCO5)ncnc32)cc1 |  | inconclusive: 2.06 µM [rising, full curve, poor fit] |
| O=C(NCCc1c[nH]c2ccccc12)c1cccnc1 |  | inconclusive: 10 µM [falling, partial curve] |
| CC(OC(=O)CCCN=C1NS(=O)(=O)c2ccccc21)C(=O)Nc1ccccc1F (configuration not stated) | inactive: -13.3% |  |
| O=c1c(=NNc2ccccc2Cl)c(=O)c2ccccc12 | inconclusive: -0.202% |  |
| O=C(Nc1cccc(Cl)c1)c1ccc(F)c(S(=O)(=O)NCc2cccs2)c1 | inconclusive: 6.42% |  |
| Cc1ccccc1C(=O)Nc1ccc(N(C)C)c2ccccc12 | inconclusive: -4.97% |  |
| COc1ccc(OC)c(NC(=O)CCCCCn2nnc3ccccc3c2=O)c1 | inconclusive: 2.04% |  |
| O=C(CCc1nc2ccccc2[nH]c1=O)OCc1ccc(S(=O)(=O)N2CCOCC2)cc1 | inconclusive: 2.01% |  |
| Cc1ccc(NC(=O)CN(C)S(=O)(=O)c2cccs2)cc1F | inconclusive: 13.8% |  |
| COc1cc(OC)c(C(=O)NCCCn2ccnc2)cc1OC | inconclusive: 3.34% |  |
| CCOc1ccc(-c2nc(CSCC(=O)N3CCN(c4ccc(F)cc4)CC3)c(C)o2)cc1 | inactive: -1.36% |  |
| Cc1c(C(=O)N2CCc3ccccc32)oc2c1C(=O)CC(C)(C)C2 | inconclusive: 15.2% |  |
| CCN(CC)C(=O)CN(c1cccc(Br)c1)S(C)(=O)=O | inconclusive: 16.4% |  |
| N#CCc1cnc2ccccc2n1 |  | inconclusive: 3.55 µM [falling, partial curve] |
| Cc1ccccc1C(=O)NC1CCN(C(=O)Nc2ccccc2Cl)CC1 | inactive: 9.68% |  |
| COc1cccc(C(=O)CSc2nnc(CNS(=O)(=O)c3ccc(C)cc3)n2C)c1 |  | inconclusive: 18.4 µM [falling, single point] |
| O=c1c2ccccc2n(Cc2cccc(F)c2)c(=O)n1C1CCCC1 | inactive: 4.62% |  |
| Cc1[nH]n(-c2cccc(Cl)c2)c(=O)c1-c1ccccc1 |  | inconclusive: 29.1 µM [rising, single point] |
| CC(NC(=O)c1nn(C)c(=O)c2ccccc12)c1ccc(F)cc1 (configuration not stated) | inconclusive: 5.52% |  |

| SMILES | activity change, negative = inhibition | Potency |
| --- | --- | --- |
| Cc1ccc(-c2nc3ccccc3s2)cc1NC(=S)NC(=O)c1ccccc1 | inconclusive: 17% |  |
| Cc1ccc2nc(NC(=O)CSCC(=O)OCC(=O)c3ccc(Br)cc3)sc2c1 |  | inconclusive: 3.16 µM [falling, partial curve] |
| C=CCN(c1ccccc1C(=O)O)S(=O)(=O)c1ccc(C)cc1 |  | inconclusive: 20 µM [falling, single point] |
| CCOC(=O)N/N=C(C)/C=C/c1ccccc1 | inactive: -1.59% |  |
| Cc1cc(CNC(=O)c2cc(Br)ccc2Cl)nn1C | inconclusive: -1.39% |  |
| CC1CCN(CCCOc2ccc(Cl)cc2Br)CC1 | inactive: 3.34% |  |
| Cc1cccc(CCNC(=O)c2ccc3c(c2)N(Cc2ccccc2F)C(=O)c2ccccc2S3)c1 | inactive: 14.7% |  |
| CN(CC(=O)Nc1cccc(F)c1)C(=O)c1cccnc1Sc1ccc(Cl)cc1 | inconclusive: 8.87% |  |
| COc1ccc2c(CC(=O)Nc3nnc(C4CC4)s3)coc2c1 | inconclusive: 3.03% |  |
| CN(C)CCCn1c(NC(=O)C2CCCCC2)nc2ccccc21 | inactive: 1.02% |  |
| Cc1ccc(/C=C/C(=O)NC2CCS(=O)(=O)C2)cc1 (configuration not stated) | inconclusive: -0.423% |  |
| Cc1c(C)c2ccc(OC(C)C(=O)N3C[C@H]4C[C@@H](C3)c3cccc(=O)n3C4)c(C)c2oc1=O (some centres not stated) |  | inconclusive: 5.62 µM [falling, partial curve, poor fit] |
| COC(=O)c1ccc(CSc2nc3ccccc3c(=O)n2-c2ccc(OC)c(OC)c2)o1 | inactive: -7.15% |  |
| CCOc1ccc(C(=O)CCN2CCCCCC2)cc1 | inconclusive: 5.15% |  |
| O=C(/C=C/c1cccc(O)c1)c1ccc(N2CCOCC2)cc1 | inconclusive: -8.86% |  |
| Cc1[nH]n(CCC#N)c(=O)c1CC(=O)N1CCN(c2ccccc2)CC1 | inconclusive: 8.46% |  |
| CC(C)CC[n+]1ccn(-c2nc3ccccc3nc2[N-]S(=O)(=O)c2ccccc2)c1 | inactive: 1.64% |  |
| COc1ccc(NC(=O)c2ccc(-c3nn(C)c(=O)c4ccccc34)cc2)cc1C(N)=O | inconclusive: 2.51% |  |
| O=C(CCCCCBr)N1CCC(CC2CC(c3cccc(Br)c3)=NO2)(C(=O)NCC2CCCCC2)CC1 (configuration not stated) | inconclusive: 25.4% |  |
| CCC(C)c1ccccc1N1CC(C(=O)NCCCn2nc(C)cc2C)CC1=O (configuration not stated) | inactive: 1.9% |  |
| CCOC(=O)C(CC)Sc1nc2c(c(=O)[nH]c(=O)n2C)n1CCc1ccccc1 (configuration not stated) | inconclusive: -0.311% |  |
